From article PMC13336449
Results are given in words; binding and its absence hold for the method and conditions named. In cells and extracts the contact can be indirect. Some entries that bind do so weakly or less than the wild type.

Molecular target: T1, DCP1b (human (endogenous in A549)) (UniProt Q8IZD4)
T1 sequence: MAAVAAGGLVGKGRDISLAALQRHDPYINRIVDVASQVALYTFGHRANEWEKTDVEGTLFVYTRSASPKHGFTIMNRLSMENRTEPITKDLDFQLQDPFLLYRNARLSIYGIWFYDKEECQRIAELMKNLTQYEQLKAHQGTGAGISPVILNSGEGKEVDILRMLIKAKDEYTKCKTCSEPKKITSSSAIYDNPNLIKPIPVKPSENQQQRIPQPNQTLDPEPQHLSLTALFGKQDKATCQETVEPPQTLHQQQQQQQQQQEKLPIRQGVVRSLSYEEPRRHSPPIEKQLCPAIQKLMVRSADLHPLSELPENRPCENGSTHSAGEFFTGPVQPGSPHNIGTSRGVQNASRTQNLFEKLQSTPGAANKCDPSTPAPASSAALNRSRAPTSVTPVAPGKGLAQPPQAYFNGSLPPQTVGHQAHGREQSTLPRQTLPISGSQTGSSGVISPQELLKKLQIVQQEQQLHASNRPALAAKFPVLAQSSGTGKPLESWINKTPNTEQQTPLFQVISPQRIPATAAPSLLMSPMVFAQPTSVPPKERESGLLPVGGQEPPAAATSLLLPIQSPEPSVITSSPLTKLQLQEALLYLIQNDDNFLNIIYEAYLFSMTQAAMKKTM
Assay: proximity ligation

binding: binds
B1: Ubiquitin C-terminal hydrolase L3 (UCHL3), endogenous (enzyme, UniProt P15374 1-230)
chain: MEGQRWLPLEANPEVTNQFLKQLGLHPNWQFVDVYGMDPELLSMVPRPVCAVLLLFPITEKYEVFRTEEEEKIKSQGQDVTSSVYFMKQTISNACGTIGLIHAIANNKDKMHFESGSTLKKFLEESVSMSPEERARYLENYDAIRVTHETSAHEGQTEAPSIDEKVDLHFIALVHVDGHLYELDGRKPFPINHGETSDETLLEDAIEVCKKFMERDPDELRFNAIALSAA
